# According to PubChem BioAssay AID540256 (National Center for Advancing Translational Sciences (NCATS), 2011):
# Hit rate of the full screen: of about 300,000 compounds, about 3,700 (1.2%) were called active. The inconclusive results got no clear call from the source; some entries with a clear call stand among them for comparison. Calls come from the whole dose curve; tested in HEK293 cells. Where the call is inconclusive, the potency comes from a doubtful curve fit.
# Test: qHTS for Inhibitors of binding or entry into cells for Lassa Virus; note: nearly all actives have a fitted effect of over 50% in size
# Conditions: Lassa virus pseudotype entry inhibition, cell reporter; activity change, negative = inhibition: at 37.9 µM (top of the series) unless noted
# % is set by controls: 0 for no effect and ±100 for the full control effect; potency is the fitted concentration of half-maximal effect.
SMILES,Potency,"activity change, negative = inhibition"
CCCCN=c1scc(-c2ccc3c(c2)NC(=O)CO3)n1N=C1CCCC1,"inconclusive: 32.6 µM [inhibitor, single point]",–
CC(Nc1ccc(S(=O)(=O)N2CCN(C)CC2)cc1[N+](=O)[O-])c1ccccc1 (stereo not drawn),"inconclusive: 31.6 µM [inhibitor, partial curve, poor fit]",–
N#CCCCSc1nnc(Cc2ccc3c(c2)OCO3)o1,–,inactive: -2.8%
Cc1sc(NC(=O)c2ccco2)c(C(Nc2ccccn2)c2ccccc2)c1C (stereo not drawn),"inconclusive: 12.6 µM [inhibitor, partial curve]",–
COc1ccc(C(=O)N/C(=C\c2cn(C)c3ccccc23)C(=O)N2CCOCC2)cc1,"inconclusive: 0.562 µM [inhibitor, full curve, poor fit]",–
Cc1ccc(-c2nnc(SCc3ccccc3F)o2)cc1,"inconclusive: 13 µM [inhibitor, single point]",–
CC(C)NC(=O)CCCN1C(=O)CCn2nc(-c3cccn3C)cc21,"inconclusive: 35.5 µM [activator, single point]",–
COc1ccc(-c2nn(-c3ccccc3)cc2/C=N/NC(=O)c2cccc(S(=O)(=O)Nc3ccccc3Cl)c2)cc1,"inconclusive: 35.5 µM [inhibitor, single point]",–
COc1cc(C(=O)Oc2ccccc2/C=N/NC(=O)c2ccc(Cl)cc2)cc(OC)c1OC,active: 11.2 µM,–
CCc1ccccc1NC(=O)Nc1ccc(F)cc1,"inconclusive: 10 µM [inhibitor, partial curve, poor fit]",–
COc1ccc(CC(=O)Nc2cccc(-c3nnc(-c4cccc(C)c4)o3)c2)cc1OC,"inconclusive: 25.1 µM [inhibitor, single point]",–
O=C(NC1CCCCCC1)c1c(O)c2ccccc2[nH]c1=O,"inconclusive: 4.47 µM [activator, full curve]",–
CCC(C)(NC(=O)Cc1c[nH]c2ccccc12)C(=O)NC1CCCCC1 (stereo not drawn),"inconclusive: 11.2 µM [inhibitor, partial curve, poor fit]",–
COc1ccc(C2C(C(=O)N3CCC(C)CC3)c3ccccc3C(=O)N2C)cc1 (stereo not drawn),"inconclusive: 13 µM [inhibitor, partial curve, poor fit]",–
COC(=O)c1sc(NC(=O)/C=C/c2ccc(OC)c(OC)c2)c(C(=O)OC)c1C,"inconclusive: 11.2 µM [activator, single point]",–
CCCn1nc(C(=O)NNC(=O)c2ccc(C)c(C)c2)c2ccccc2c1=O,–,inactive: 12.3%
O=C(CCC(=O)c1ccc[nH]1)c1ccc(Cl)cc1,"inconclusive: 18.3 µM [activator, partial curve, poor fit]",–
COc1ccc(/C=N/c2oc(C)c(C)c2C#N)c(OC)c1,–,inactive: -20.1%
COc1ccc(C(=O)Nc2cccc(OCc3cc(=O)n4c5c(sc4n3)CCCC5)c2)cc1,–,inactive: 15% [at 46.1 µM]
O=C(Nc1cccc(F)c1)c1c(O)c2ccccc2[nH]c1=O,"inconclusive: 5.62 µM [activator, partial curve, poor fit]",–
COc1ccc(OC)c(S(=O)(=O)NCc2cccn2Cc2cccc(C)c2)c1,"inconclusive: 11.2 µM [inhibitor, partial curve, poor fit]",–
Cc1ccc(/C=N/c2sc3c(c2C#N)CCC3)s1,–,inactive: -14.1%

SMILES,Potency,"activity change, negative = inhibition"
Clc1ccc(OCCN2CCN(c3ncnc4sccc34)CC2)cc1,"inconclusive: 0.58 µM [inhibitor, single point]",–
CCCCCCN1C[C@@H](O)[C@H](n2cc(C3CC3)nn2)C[C@H]1c1ccc(C)cc1,"inconclusive: 14.1 µM [inhibitor, partial curve, poor fit]",–
CCOC(=O)c1ccccc1NC(=O)c1sc2ncn(Cc3cccc(F)c3)c(=O)c2c1C,–,inactive: 12.3% [at 46.1 µM]
COc1cc(OC)cc(C(=O)N[C@H](C(=O)NCCc2c[nH]c3ccccc23)C(C)C)c1,"inconclusive: 12.6 µM [inhibitor, single point]",–
C/C(Cc1ccccc1)=N\NC(=O)CNC(=O)c1cccc(Cl)c1,–,inactive: -10%
COC(=O)c1c(C)n(Cc2ccco2)c2ccc(O)cc12,–,inactive: -2.44%
COc1ccc(/C=C(\C#N)c2nc(-c3cc4c(ccc5ccccc54)oc3=O)cs2)cc1O,–,inactive: 2.79% [at 46.1 µM]
Cc1ccc(C2=Nc3ccccc3N(CC(=O)NCc3ccc(F)cc3)C(=O)C2)cc1C,–,inactive: 1.23% [at 46.1 µM]
CCOc1ccc(N(CC(=O)NCCSCc2ccco2)S(=O)(=O)c2ccc(C)cc2)cc1,"inconclusive: 6.31 µM [inhibitor, single point]",–
O=c1oc(-c2cccc(C(F)(F)F)c2)nn1-c1ccc(C(F)(F)F)cn1,–,inactive: -2.14%
O=C1CCCc2c1[nH]c1ccc(CN3CCCCC3)cc21,"inconclusive: 11.6 µM [activator, partial curve, poor fit]",–
CCn1c2ccccc2c2cc(/C=N/n3c(-c4cc(C)[nH]n4)n[nH]c3=S)ccc21,"inconclusive: 35.5 µM [inhibitor, single point]",–
CCN1C(=O)c2ccccc2S(=O)c2ccc(C(=O)N3CCN(c4cccc(C)c4)C(C)C3)cc21 (stereo not drawn),"inconclusive: 2.51 µM [inhibitor, full curve, poor fit]",–
CCN1CCN(C(=O)c2ccc(CN(c3ccc(C)c(C)c3)S(C)(=O)=O)cc2)CC1,"inconclusive: 5.01 µM [inhibitor, full curve, poor fit]",–
O=C(NNc1nc2ccccc2s1)c1ccc(F)cc1,–,inactive: -13.8%
COc1cc(/C=C/C(=O)OCC(=O)N2CCCc3ccccc32)ccc1O,–,inactive: -26%
COc1cc(OC)c(C2Nc3c(C)cccc3-c3cc(C)nn32)cc1OC (stereo not drawn),–,inactive: -8.35% [at 46.1 µM]
O=C1c2cccc(OCc3ccc(F)cc3)c2CCN1Cc1ccccc1,"inconclusive: 14.1 µM [inhibitor, partial curve]",–
CCn1c(=O)cc(SCC(=O)NCc2ccc3c(c2)OCO3)c2ccccc21,"inconclusive: 0.092 µM [activator, full curve, poor fit]",–
N#C/C(=C(/O)COc1ccc(Cl)cc1)c1nc2ccccc2s1,"inconclusive: 3.55 µM [inhibitor, single point]",–
N=c1c2c(n(Cc3ccc(Cl)cc3Cl)c3c1CCC3)CCCC2,active: 3.98 µM,–

# Another view of part of the listing above:
SMILES | Potency | activity change, negative = inhibition
COC(=O)c1sc(NC(=O)/C=C/c2ccc(OC)c(OC)c2)c(C(=O)OC)c1C | inconclusive: 11.2 µM [activator, single point] | –
CCCn1nc(C(=O)NNC(=O)c2ccc(C)c(C)c2)c2ccccc2c1=O | – | inactive: 12.3%
